{
  "source": "patent US20080090863A1",
  "about": "“Pyridine Derivatives and Their Use as Medicaments for Treating Diseases Related to Mch Receptor” (TAISHO PHARMACEUTICAL CO., LTD., priority 2004, published 2008)",
  "biological_target": "MCH receptor (Homo sapiens, UniProt Q99705)",
  "assay": "High Throughput Functional Screening: FLIPR/FDSS6000 intracellular Ca2+ assay, antagonist activity against MCH",
  "assay_type": "cell-based",
  "conditions": "FLIPR/FDSS, [Ca2+]i evoked by 50 nM MCH; class by percent of control at 10^−7 M or IC50",
  "text": "Subsequently, a functional based assay was used to confirm the lead hits, referred to as FLIPR™ (the Fluorometric Imaging Plate Reader) and FDSS6000™ (Functional Drug Screening System). This assay utilized a non-endogenous, constitutively active version of the MCH receptor.\nThe FLIPR and FDSS assays are able to detect intracellular Ca^2+ concentration in cells, which can be utilized to assess receptor activation and determine whether a candidate compound is an, for example, antagonist, inverse agonist or agonist to a Gq-coupled receptor. […]\nFluorometric Imaging Plate Reader system was used to allow for rapid, kinetic measurements of intracellular fluorescence in 96 well microplates (or 384 well microplates). Simultaneous measurements of fluorescence in all wells can be made by FLIPR or FDSS6000™ every second with high sensitivity and precision. […]\nBriefly, the cells are seeded into 96 well at 5.5×10^4 cells/well with complete culture media (Dulbecco's Modified Eagle Medium with 10% fetal bovine serum, 2 mM L-glutamine, 1 mM sodium pyruvate and 0.5 mg/mL G418, pH 7.4) for the assay next day. […] Fifty μl of wash buffer containing various concentration of MCH are added to each well, and transient changes in [Ca^2+]i evoked by MCH are monitored using the FLIPR™ or FDSS in 96 well plates at Ex. 488 nm and Em. […]",
  "note": "Counter-ions that a name gives are not always drawn.",
  "data": [
    {"compound": "CN(C)c1cccc(N[C@H]2CC[C@@H](NC(=O)c3ccc(F)c(Cl)c3)CC2)n1", "note": "[Example 38, 3-Chloro-N-(cis-4-{[6-(dimethylamino)pyridin-2-yl]amino}cyclohexyl)-4-fluorobenzamide hydrochloride]", "values": [
      {"measurement": "IC50", "result": "< 50", "unit": "nM"}
    ]}
  ]
}
